Measured values taken from the supplement of paper PMC10849652.
The list shows a part of the results.

The chains behind the UniProt entries cited, without tags or fusion partners. Where a name states a change or a piece, a line headed by the entry shows the natural chain unless it says otherwise.
UniProt Q9P2S5: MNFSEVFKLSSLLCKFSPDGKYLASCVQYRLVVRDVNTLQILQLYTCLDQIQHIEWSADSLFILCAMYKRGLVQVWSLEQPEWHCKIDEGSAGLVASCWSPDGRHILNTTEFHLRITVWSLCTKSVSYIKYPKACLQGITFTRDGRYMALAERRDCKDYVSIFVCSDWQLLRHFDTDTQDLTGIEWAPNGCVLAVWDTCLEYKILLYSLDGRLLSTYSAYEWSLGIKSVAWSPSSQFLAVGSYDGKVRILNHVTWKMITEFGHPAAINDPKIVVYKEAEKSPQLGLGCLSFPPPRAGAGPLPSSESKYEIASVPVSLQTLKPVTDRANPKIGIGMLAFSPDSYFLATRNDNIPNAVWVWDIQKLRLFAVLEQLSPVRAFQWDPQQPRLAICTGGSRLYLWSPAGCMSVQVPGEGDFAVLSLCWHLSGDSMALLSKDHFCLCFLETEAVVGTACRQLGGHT
UniProt Q2M389: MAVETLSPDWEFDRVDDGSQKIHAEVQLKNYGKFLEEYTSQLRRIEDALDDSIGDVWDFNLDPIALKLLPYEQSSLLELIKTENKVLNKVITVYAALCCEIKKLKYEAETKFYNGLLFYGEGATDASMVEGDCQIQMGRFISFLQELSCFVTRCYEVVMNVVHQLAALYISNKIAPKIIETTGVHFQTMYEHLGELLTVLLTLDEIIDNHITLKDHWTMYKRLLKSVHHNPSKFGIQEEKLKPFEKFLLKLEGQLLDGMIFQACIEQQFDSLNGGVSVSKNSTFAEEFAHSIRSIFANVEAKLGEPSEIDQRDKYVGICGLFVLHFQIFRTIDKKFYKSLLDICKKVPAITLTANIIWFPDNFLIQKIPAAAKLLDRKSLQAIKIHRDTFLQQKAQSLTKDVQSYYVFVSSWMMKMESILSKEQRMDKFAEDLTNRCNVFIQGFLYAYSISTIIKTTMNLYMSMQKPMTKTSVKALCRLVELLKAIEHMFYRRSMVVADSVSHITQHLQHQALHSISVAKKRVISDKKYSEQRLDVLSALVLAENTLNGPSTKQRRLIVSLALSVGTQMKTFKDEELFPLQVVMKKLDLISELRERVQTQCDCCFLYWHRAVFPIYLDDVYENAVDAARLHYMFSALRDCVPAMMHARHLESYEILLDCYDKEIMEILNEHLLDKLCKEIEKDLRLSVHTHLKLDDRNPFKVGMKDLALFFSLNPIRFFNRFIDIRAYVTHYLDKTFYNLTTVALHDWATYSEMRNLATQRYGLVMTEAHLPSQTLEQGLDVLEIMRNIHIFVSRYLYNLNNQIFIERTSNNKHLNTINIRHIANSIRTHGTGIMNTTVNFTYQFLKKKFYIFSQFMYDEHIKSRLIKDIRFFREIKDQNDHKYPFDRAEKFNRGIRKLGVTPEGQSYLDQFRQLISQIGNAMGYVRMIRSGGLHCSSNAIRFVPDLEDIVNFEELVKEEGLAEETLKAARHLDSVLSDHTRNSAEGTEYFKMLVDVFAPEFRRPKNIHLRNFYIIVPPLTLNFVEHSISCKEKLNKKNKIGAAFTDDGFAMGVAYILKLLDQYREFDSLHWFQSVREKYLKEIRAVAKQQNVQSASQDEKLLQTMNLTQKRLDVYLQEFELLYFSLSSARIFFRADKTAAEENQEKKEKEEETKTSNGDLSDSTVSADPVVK
UniProt Q15007: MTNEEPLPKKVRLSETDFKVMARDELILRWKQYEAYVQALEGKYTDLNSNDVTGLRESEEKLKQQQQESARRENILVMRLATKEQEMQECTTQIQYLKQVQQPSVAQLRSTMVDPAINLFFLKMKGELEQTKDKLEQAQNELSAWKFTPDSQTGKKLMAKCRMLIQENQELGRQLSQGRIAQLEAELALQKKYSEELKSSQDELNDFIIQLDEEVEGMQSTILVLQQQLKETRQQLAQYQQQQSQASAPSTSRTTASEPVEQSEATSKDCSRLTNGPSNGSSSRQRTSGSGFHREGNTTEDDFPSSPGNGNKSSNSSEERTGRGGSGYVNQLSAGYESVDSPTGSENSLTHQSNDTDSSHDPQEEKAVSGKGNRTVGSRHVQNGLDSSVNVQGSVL
UniProt Q96FK6: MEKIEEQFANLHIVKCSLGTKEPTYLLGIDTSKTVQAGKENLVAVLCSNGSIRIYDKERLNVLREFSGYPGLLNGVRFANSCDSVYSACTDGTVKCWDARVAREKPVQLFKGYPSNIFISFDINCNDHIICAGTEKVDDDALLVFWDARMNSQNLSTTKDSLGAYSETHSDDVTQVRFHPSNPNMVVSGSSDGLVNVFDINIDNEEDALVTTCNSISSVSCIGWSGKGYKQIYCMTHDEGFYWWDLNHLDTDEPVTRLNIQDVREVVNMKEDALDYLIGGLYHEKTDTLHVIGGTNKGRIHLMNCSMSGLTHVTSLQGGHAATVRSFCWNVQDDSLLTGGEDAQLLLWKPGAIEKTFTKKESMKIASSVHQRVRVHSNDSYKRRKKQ
UniProt Q969T9: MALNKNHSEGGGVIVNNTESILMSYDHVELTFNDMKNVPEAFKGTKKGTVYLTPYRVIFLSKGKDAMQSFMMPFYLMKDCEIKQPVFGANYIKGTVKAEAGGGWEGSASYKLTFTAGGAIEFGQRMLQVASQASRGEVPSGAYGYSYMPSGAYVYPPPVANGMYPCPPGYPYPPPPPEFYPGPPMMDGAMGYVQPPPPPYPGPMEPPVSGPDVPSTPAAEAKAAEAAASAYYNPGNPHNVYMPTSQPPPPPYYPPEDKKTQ
UniProt Q6AWC2, whole entry, looked up: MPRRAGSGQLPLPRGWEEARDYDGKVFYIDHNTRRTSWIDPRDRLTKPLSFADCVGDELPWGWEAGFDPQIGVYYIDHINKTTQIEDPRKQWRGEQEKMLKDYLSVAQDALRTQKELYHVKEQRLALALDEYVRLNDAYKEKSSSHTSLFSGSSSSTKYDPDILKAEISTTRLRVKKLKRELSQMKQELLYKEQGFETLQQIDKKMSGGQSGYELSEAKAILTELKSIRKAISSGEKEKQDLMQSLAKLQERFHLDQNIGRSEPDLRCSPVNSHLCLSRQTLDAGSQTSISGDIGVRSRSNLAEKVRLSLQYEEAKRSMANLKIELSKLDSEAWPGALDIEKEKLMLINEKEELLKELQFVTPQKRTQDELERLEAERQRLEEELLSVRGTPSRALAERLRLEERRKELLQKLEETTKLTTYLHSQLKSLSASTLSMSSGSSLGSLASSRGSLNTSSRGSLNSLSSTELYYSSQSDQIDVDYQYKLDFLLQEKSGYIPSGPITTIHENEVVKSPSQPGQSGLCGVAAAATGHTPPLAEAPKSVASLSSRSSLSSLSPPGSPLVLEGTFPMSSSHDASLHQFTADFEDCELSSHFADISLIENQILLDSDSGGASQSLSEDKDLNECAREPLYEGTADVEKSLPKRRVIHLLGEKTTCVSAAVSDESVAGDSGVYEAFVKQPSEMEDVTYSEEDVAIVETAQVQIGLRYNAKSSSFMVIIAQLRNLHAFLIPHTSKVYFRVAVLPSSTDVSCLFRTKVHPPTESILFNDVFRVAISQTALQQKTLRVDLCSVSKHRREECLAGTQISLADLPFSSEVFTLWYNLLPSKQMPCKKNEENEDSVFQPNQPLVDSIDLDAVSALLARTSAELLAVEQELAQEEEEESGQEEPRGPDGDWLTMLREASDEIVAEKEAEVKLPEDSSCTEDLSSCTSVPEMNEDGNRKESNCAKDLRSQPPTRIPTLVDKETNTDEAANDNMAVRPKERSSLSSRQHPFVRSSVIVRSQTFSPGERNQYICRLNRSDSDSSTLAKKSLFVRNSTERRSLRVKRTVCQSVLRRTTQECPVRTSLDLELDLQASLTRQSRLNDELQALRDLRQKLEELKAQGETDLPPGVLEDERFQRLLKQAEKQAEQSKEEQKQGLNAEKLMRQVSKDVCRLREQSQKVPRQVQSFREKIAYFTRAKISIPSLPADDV
UniProt Q96AJ9: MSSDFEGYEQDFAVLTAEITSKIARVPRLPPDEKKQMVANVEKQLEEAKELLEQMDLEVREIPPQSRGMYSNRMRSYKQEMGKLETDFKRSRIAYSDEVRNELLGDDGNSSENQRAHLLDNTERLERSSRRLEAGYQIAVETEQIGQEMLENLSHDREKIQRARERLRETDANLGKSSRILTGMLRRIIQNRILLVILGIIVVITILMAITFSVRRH
UniProt O00308: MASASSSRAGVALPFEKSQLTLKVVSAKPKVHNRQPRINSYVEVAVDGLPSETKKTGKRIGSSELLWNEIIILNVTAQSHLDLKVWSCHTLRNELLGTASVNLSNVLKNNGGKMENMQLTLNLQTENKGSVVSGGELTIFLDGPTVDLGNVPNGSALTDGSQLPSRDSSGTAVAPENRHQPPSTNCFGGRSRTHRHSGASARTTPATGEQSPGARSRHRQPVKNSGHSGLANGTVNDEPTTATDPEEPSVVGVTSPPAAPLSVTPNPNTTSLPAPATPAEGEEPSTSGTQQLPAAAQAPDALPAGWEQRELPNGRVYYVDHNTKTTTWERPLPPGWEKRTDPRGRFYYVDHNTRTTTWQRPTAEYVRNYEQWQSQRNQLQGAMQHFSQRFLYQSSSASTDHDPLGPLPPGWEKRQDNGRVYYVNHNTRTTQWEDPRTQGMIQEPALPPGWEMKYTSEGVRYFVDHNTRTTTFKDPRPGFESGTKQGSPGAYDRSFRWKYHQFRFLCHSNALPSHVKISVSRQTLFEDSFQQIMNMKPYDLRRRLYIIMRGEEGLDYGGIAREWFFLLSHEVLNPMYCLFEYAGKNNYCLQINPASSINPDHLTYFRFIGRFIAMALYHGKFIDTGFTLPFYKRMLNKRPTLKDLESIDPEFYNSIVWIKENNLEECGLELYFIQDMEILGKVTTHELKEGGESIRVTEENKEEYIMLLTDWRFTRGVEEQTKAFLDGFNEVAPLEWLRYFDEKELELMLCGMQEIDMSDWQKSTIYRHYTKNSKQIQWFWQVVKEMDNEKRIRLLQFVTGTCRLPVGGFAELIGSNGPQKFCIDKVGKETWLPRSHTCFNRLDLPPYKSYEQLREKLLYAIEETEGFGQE
UniProt Q9NQW7: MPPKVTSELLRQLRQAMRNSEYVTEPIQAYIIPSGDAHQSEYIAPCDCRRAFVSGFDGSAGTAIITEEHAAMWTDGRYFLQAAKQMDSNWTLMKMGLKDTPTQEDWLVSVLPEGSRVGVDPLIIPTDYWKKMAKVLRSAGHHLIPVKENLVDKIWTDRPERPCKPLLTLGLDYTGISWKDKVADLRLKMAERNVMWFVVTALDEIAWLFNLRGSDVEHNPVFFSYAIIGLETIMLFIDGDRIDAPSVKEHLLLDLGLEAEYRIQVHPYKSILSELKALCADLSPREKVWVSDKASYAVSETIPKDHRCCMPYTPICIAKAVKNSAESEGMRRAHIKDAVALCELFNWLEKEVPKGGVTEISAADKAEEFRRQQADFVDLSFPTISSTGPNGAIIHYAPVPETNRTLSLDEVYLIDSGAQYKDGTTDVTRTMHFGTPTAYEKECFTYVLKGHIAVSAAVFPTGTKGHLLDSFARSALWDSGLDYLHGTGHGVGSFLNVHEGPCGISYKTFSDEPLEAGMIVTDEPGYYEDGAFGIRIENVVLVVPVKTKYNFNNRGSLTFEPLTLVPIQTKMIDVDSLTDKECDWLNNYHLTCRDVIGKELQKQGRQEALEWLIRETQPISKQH
UniProt Q6PJI9: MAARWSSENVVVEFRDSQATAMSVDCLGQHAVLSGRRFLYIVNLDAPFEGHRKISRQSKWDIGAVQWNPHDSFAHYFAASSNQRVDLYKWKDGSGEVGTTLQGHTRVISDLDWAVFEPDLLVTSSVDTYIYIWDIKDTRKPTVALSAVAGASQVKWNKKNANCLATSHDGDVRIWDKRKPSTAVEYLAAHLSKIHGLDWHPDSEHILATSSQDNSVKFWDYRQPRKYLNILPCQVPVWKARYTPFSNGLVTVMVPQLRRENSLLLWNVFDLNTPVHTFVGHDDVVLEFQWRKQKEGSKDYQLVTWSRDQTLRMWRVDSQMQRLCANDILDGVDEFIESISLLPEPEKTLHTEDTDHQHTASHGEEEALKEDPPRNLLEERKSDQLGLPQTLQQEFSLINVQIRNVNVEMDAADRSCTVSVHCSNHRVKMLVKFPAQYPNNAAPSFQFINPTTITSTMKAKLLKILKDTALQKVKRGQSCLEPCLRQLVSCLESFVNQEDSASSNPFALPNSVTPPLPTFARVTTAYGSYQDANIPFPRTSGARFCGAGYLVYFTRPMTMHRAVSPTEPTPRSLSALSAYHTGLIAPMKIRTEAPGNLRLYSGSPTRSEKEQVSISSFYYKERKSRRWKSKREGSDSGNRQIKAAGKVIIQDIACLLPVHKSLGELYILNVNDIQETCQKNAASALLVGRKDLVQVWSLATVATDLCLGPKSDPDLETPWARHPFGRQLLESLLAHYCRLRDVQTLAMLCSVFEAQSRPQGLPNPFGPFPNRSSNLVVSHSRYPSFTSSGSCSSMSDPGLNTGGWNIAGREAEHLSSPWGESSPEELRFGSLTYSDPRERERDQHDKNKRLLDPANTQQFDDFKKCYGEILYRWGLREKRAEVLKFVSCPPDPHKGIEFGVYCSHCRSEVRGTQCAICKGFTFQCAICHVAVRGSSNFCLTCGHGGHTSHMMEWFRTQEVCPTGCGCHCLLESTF

How the values were obtained:
Assay in all cases: log2 fold change, soluble protein after heating vs DMSO (PISA); higher = thermal stabilisation; K562 lysate, 10 uM; active = over 0.2 and 3.5 SD of the protein, either way, in both replicates (recomputed)
erlotinib = compound: C#Cc1cccc(Nc2ncnc3cc(OCCOC)c(OCCOC)cc23)c1 [erlotinib]
Outline: (§1)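 Pellets of K562 cells were dounce-homogenised in PBS pH 7.4 with 1 mM MgCl2, and the crude extract was held at 1 mg/mL protein for a 30 min treatment with 10 μM compound. Aliquots were heated for 3 min over 48°C-58°C and pooled before NP-40 was added to 0.5% at 4°C. The supernatant from 21,000xg for 90 min was quantified by TMTpro 16plex LC-MS/MS with channel sums equalised. Values are reported from duplicates as log-two fold change in thermal stability relative to solvent controls.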

[1] = compound: C/C(=N\NC(=O)C1=CC(=CC=C1)S(=O)(=O)N2CCOCC2)/C3=C(C=CC(=C3)Cl)O
Outline: as §1

[2] = compound: C1=CC(=CC=C1C2=NC3=C(N2)C=C(C=C3)C(=O)N)OC4=CC=C(C=C4)Cl
Outline: as §1

[3] = compound: C1=CC2=C(C=CC(=C2)/C=C\3/C(=O)NC(=NCC4=CC=CS4)S3)N=C1
Outline: as §1

[4] = compound: C1=CC2=NC=CN=C2C=C1/C=C/3\C(=O)NC(=O)S3
Outline: as §1

[5] = compound: C1=CC=C(C=C1)C2=NC(=C(N2)C3=CC=NC=C3)C4=CC(=C(C=C4)Cl)O
Outline: as §1

[6] = compound: C1=CC=C2C(=C1)C3=NNC4=CC=CC(=C43)C2=O
Outline: as §1

[7] = compound: C1CCN(C1)C(=O)NC2=CC=CC(=C2)NC3=NC=C(C(=N3)NCCC4=CN=CN4)Br
Outline: as §1

[8] = compound: C1CN(CCC1(CC2=CC=C(C=C2)Cl)N)C3=NC=NC4=C3C=CN4
Outline: as §1

IRAK-1-4 Inhibitor I = compound: C1COCCN1CCN2C3=CC=CC=C3N=C2NC(=O)C4=CC(=CC=C4)[N+](=O)[O-] [IRAK-1-4 Inhibitor I]
Outline: as §1

Measured: log2 fold change

WDR5 (UniProt P61964)
inactive: erlotinib -0.018 | [1] 0.015 | [2] 0.02 | [3] -0.022 | [4] -0.036 | [5] 0.019 | [6] 0.025 | [7] -0.033 | [8] -0.014 | IRAK-1-4 Inhibitor I 0.043

WRAP73 (UniProt Q9P2S5)
inactive: erlotinib 0.022 | [1] -0.061 | [2] -0.097 | [3] -0.007 | [4] -0.049 | [5] -0.024 | [6] -0.008 | [7] -0.015 | [8] 0.005 | IRAK-1-4 Inhibitor I 0.045

WASHC4 (UniProt Q2M389)
inactive: erlotinib 0.027 | [1] 0.021 | [2] -0.02 | [3] -0.015 | [4] -0.02 | [5] 0.013 | [6] -0.009 | [7] 0.022 | [8] 0.022 | IRAK-1-4 Inhibitor I -0.008

WTAP (UniProt Q15007)
inactive: erlotinib 0.005 | [1] 0.056 | [2] 0.024 | [3] 0.008 | [4] -0.005 | [5] 0.02 | [6] -0.019 | [7] 0.004 | [8] -0.023 | IRAK-1-4 Inhibitor I 0.002

WDR89 (UniProt Q96FK6)
inactive: erlotinib 0.05 | [1] -0.019 | [2] -0.009 | [3] -0.059 | [4] -0.116 | [5] -0.032 | [6] 0.072 | [7] 0.048 | [8] -0.025 | IRAK-1-4 Inhibitor I 0.012

WBP2 (UniProt Q969T9)
inactive: erlotinib 0.014 | [1] -0.002 | [2] 0.011 | [3] -0.002 | [4] -0.019 | [5] 0.037 | [6] 0.021 | [7] 0.01 | [8] -0.009 | IRAK-1-4 Inhibitor I -0.028

VMP1 (UniProt Q96GC9)
inactive: erlotinib -0.036 | [1] 0.015 | [2] 0.083 | [3] 0.034 | [4] 0.034 | [5] -0.023 | [6] -0.039 | [7] -0.035 | [8] 0.019 | IRAK-1-4 Inhibitor I 0.05

WWC2 isoform 6 (UniProt Q6AWC2)
inactive: erlotinib -0.061 | [1] -0.111 | [2] 0.032 | [3] -0.003 | [4] -0.025 | [5] -0.026 | [6] -0.061 | [7] 0.032 | [8] 0.046 | IRAK-1-4 Inhibitor I -0.029

VPS54 (UniProt Q9P1Q0)
inactive: erlotinib -0.018 | [1] -0.061 | [2] 0.059 | [3] -0.117 | [4] 0.213 | [5] -0.044 | [6] -0.114 | [7] -0.019 | [8] -0.079 | IRAK-1-4 Inhibitor I 0.036

WDR26, A0A499FIZ0
inactive: erlotinib -0.004 | [1] 0.055 | [2] 0 | [3] -0.008 | [4] 0.014 | [5] -0.015 | [6] 0.02 | [7] -0.003 | [8] -0.006 | IRAK-1-4 Inhibitor I -0.023

XPA (UniProt P23025)
inactive: erlotinib -0.018 | [1] -0.027 | [2] 0.061 | [3] 0.013 | [4] -0.109 | [5] 0.051 | [6] -0.055 | [7] -0.027 | [8] 0.077 | IRAK-1-4 Inhibitor I -0.048

WDR18 (UniProt Q9BV38)
inactive: erlotinib 0.018 | [1] -0.047 | [2] 0.018 | [3] -0.015 | [4] -0.003 | [5] 0.004 | [6] 0.029 | [7] -0.035 | [8] -0.023 | IRAK-1-4 Inhibitor I 0.044

WDR77 (UniProt Q9BQA1)
inactive: erlotinib -0.008 | [1] -0.073 | [2] -0.018 | [3] 0.025 | [4] -0.021 | [5] -0.009 | [6] 0.011 | [7] 0.004 | [8] 0.014 | IRAK-1-4 Inhibitor I 0.002

WDR11 (UniProt Q9BZH6)
inactive: erlotinib 0.015 | [1] -0.206 | [2] 0.036 | [3] -0.076 | [4] -0.003 | [5] -0.018 | [6] -0.077 | [7] -0.106 | [8] 0.007 | IRAK-1-4 Inhibitor I 0.022

VTI1A (UniProt Q96AJ9)
inactive: erlotinib -0.009 | [1] -0.003 | [2] -0.029 | [3] 0.045 | [4] -0.043 | [5] -0.026 | [6] 0.008 | [7] -0.001 | [8] 0.025 | IRAK-1-4 Inhibitor I 0.028

WDR13 (UniProt Q9H1Z4)
inactive: erlotinib -0.053 | [1] -0.048 | [2] -0.001 | [3] 0.084 | [4] -0.032 | [5] 0.024 | [6] 0.092 | [7] -0.021 | [8] 0.039 | IRAK-1-4 Inhibitor I -0.054

WRN (UniProt Q14191)
inactive: erlotinib -0.003 | [1] -0.048 | [2] 0.005 | [3] 0.006 | [4] 0.057 | [5] 0.011 | [6] -0.077 | [7] 0.02 | [8] -0.012 | IRAK-1-4 Inhibitor I -0.013

WDR45 isoform 2 (UniProt Q9Y484)
inactive: erlotinib -0.047 | [1] -0.032 | [2] -0.024 | [3] -0.001 | [4] 0.06 | [5] -0.008 | [6] -0.016 | [7] 0.041 | [8] -0.005 | IRAK-1-4 Inhibitor I -0.012

VPS28 (UniProt Q9UK41)
inactive: erlotinib 0.707 | [1] -0.039 | [2] 0.004 | [3] -0.005 | [4] 0.041 | [5] 0.028 | [6] -0.036 | [7] -0.006 | [8] -0.018 | IRAK-1-4 Inhibitor I -0.036

WASF2 (UniProt Q9Y6W5)
inactive: erlotinib -0.023 | [1] 0.023 | [2] -0.004 | [3] -0.016 | [4] 0 | [5] -0.033 | [6] -0.002 | [7] 0.002 | [8] 0.008 | IRAK-1-4 Inhibitor I -0.016

WDR6 (UniProt Q9NNW5)
inactive: erlotinib 0.001 | [1] 0.01 | [2] 0.002 | [3] 0.026 | [4] -0.01 | [5] 0 | [6] -0.014 | [7] -0.02 | [8] 0.021 | IRAK-1-4 Inhibitor I -0.011

WWP2 (UniProt O00308)
inactive: erlotinib -0.059 | [1] 0.828 | [2] 0.026 | [3] 0.03 | [4] -0.014 | [5] 0.031 | [6] 0.063 | [7] -0.091 | [8] 0.041 | IRAK-1-4 Inhibitor I 0.03

Taken from the entries so far (seven entries):
WDR11 (UniProt Q9BZH6)
inactive: erlotinib 0.015 | [1] -0.206 | [2] 0.036 | [3] -0.076 | [4] -0.003 | [5] -0.018 | [6] -0.077 | [7] -0.106 | [8] 0.007 | IRAK-1-4 Inhibitor I 0.022

VTI1A (UniProt Q96AJ9)
inactive: erlotinib -0.009 | [1] -0.003 | [2] -0.029 | [3] 0.045 | [4] -0.043 | [5] -0.026 | [6] 0.008 | [7] -0.001 | [8] 0.025 | IRAK-1-4 Inhibitor I 0.028

WDR13 (UniProt Q9H1Z4)
inactive: erlotinib -0.053 | [1] -0.048 | [2] -0.001 | [3] 0.084 | [4] -0.032 | [5] 0.024 | [6] 0.092 | [7] -0.021 | [8] 0.039 | IRAK-1-4 Inhibitor I -0.054

WRN (UniProt Q14191)
inactive: erlotinib -0.003 | [1] -0.048 | [2] 0.005 | [3] 0.006 | [4] 0.057 | [5] 0.011 | [6] -0.077 | [7] 0.02 | [8] -0.012 | IRAK-1-4 Inhibitor I -0.013

WDR45 isoform 2 (UniProt Q9Y484)
inactive: erlotinib -0.047 | [1] -0.032 | [2] -0.024 | [3] -0.001 | [4] 0.06 | [5] -0.008 | [6] -0.016 | [7] 0.041 | [8] -0.005 | IRAK-1-4 Inhibitor I -0.012

VPS28 (UniProt Q9UK41)
inactive: erlotinib 0.707 | [1] -0.039 | [2] 0.004 | [3] -0.005 | [4] 0.041 | [5] 0.028 | [6] -0.036 | [7] -0.006 | [8] -0.018 | IRAK-1-4 Inhibitor I -0.036

WASF2 (UniProt Q9Y6W5)
inactive: erlotinib -0.023 | [1] 0.023 | [2] -0.004 | [3] -0.016 | [4] 0 | [5] -0.033 | [6] -0.002 | [7] 0.002 | [8] 0.008 | IRAK-1-4 Inhibitor I -0.016

Additional records follow.

XPNPEP1 isoform 3 (UniProt Q9NQW7)
inactive: erlotinib -0.001 | [1] 0.023 | [2] -0.019 | [3] 0.001 | [4] -0.007 | [5] -0.005 | [6] -0.011 | [7] -0.006 | [8] 0.005 | IRAK-1-4 Inhibitor I 0.009

WDR53 (UniProt Q7Z5U6)
inactive: erlotinib -0.085 | [1] -0.391 | [2] 0.085 | [3] 0.014 | [4] 0.118 | [5] 0.041 | [6] 0.123 | [7] -0.038 | [8] 0.036 | IRAK-1-4 Inhibitor I 0.004

WDR59 (UniProt Q6PJI9)
inactive: erlotinib 0.023 | [1] 0.102 | [2] 0.009 | [3] -0.016 | [4] 0.035 | [5] 0.063 | [6] 0.013 | [7] -0.093 | [8] -0.015 | IRAK-1-4 Inhibitor I 0.016

VPS51 (UniProt Q9UID3)
inactive: erlotinib 0.034 | [1] -0.067 | [2] -0.015 | [3] 0.028 | [4] 0.004 | [5] 0.008 | [6] 0.017 | [7] 0 | [8] 0.023 | IRAK-1-4 Inhibitor I 0.014

WIPF2 (UniProt Q8TF74)
inactive: erlotinib -0.018 | [1] -0.021 | [2] 0.028 | [3] 0.022 | [4] -0.014 | [5] 0.016 | [6] 0.006 | [7] -0.018 | [8] 0.049 | IRAK-1-4 Inhibitor I -0.005

VWA8 (UniProt A3KMH1)
inactive: erlotinib 0.005 | [1] -0.145 | [2] 0.039 | [3] -0.072 | [4] 0.168 | [5] -0.075 | [6] -0.121 | [7] -0.06 | [8] 0.096 | IRAK-1-4 Inhibitor I 0.103

WDR43 (UniProt Q15061)
inactive: erlotinib 0.02 | [1] 0.005 | [2] -0.005 | [3] -0.016 | [4] 0.003 | [5] -0.026 | [6] 0.016 | [7] -0.014 | [8] -0.039 | IRAK-1-4 Inhibitor I -0.006
